Results from PubChem BioAssay AID2685 (National Center for Advancing Translational Sciences (NCATS), 2010).
The list shows a part of the results. These are further read-outs of the screen, such as a control signal, another cell line or another target. No call is given for them. Most of these compounds were active or inconclusive in the main read-out, so they are no random draw. Words in brackets tell the shape of the fitted curve; partial curves, single points and poor fits give uncertain potencies.

Assay: qHTS Assay for Lipid Storage Modulators in Drosophila S3 Cells;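 on cell number change: cells counted by Cell Tracker Red CMTPX staining in the red channel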
Settings: BODIPY lipid droplet fluorescence, 18-24 h; for cell number change: measured here: cell count max response, cells fed with added oleic acid
How it was run: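 Drosophila S3 cells got compounds at several concentrations plus oleic acid (400 uM solution). Laser-scanning cytometry with 488 nm excitation read lipid droplets at 500-530 nm and cells at 575-640 nm. Percent activity was relative to 20 uM Triacsin C.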

[1] = measured here: lipid fluorescence (Fed channel) AC50, cells fed with added oleic acid
[2] = measured here: cell number channel AC50, cells fed with added oleic acid

| Structure (SMILES) | cell number change [%] | AC50 [1] | AC50 [2] |
| --- | --- | --- | --- |
| COc1ccc(/C=N/NC(=O)c2ccn[nH]2)cc1CSc1ccccn1 | -2.29 | 0.651 µM [rising, single point] | – |
| Cc1ccc(C)c(S(=O)(=O)c2c(N)n(/N=C/c3ccco3)c3nc4ccccc4nc23)c1 | -22 | 1.64 µM [rising, partial curve] | – |
| CC(C)NC(=O)C(=O)NCCN1CCN(C(=O)c2ccc(C(C)(C)C)cc2)CC1 | 90.8 | – | 29.1 µM [rising, single point] |
| Fc1ccccc1/C=N/NC(=S)Nc1ccc(Cl)cc1Cl | -31.9 | 0.184 µM [falling, partial curve, poor fit] | 16.4 µM [falling, single point] |
| CN(C)S(=O)(=O)c1cccc(NC(=O)COC(=O)c2cc(=O)c3ccccc3o2)c1 | 13.2 | – | – |
| O=C(c1cccc(F)c1)N1CCN(C(=O)c2cc3nc(-c4ccco4)cc(C(F)(F)F)n3n2)CC1 | -11.4 | 6.51 µM [rising, single point] | – |
| O=C(O)c1nn(CCSc2ccccc2F)c(=O)c2ccccc12 | 7.13 | – | – |
| Cn1nc(C(=O)Nc2cccc(C(=O)NC3CC3)c2)c2ccccc2c1=O | -3.07 | – | – |
| O=C(OCC1COc2ccccc2O1)c1ccccc1F (stereo unspecified) | -12.8 | 6.51 µM [rising, partial curve, poor fit] | – |
| CCCCc1nnc(SCc2ccc(OCC)cc2)n1N | 4.08 | 0.0164 µM [falling, full curve] | – |
| NS(=O)(=O)c1ccc(Nc2nc(-c3ccc(F)cc3)cs2)cc1 | 45.9 | – | – |
| COc1cccc(NC(=O)N2CCCC2C(=O)NC2CCCCC2)c1 (stereo unspecified) | 2.86 | 29.1 µM [rising, single point] | – |
| O=C(CN1CCOCC1)Nc1ccc(Cl)cn1 | -18 | 29.1 µM [rising, single point] | – |
| CCOC(=O)N1CCN(CC(=O)Nc2cc3c(cc2C(C)=O)OCO3)CC1 | – | 6.51 µM [rising, single point] | – |
| COc1ccc(C(=O)N/N=C(\C)Cn2cnc([N+](=O)[O-])n2)cc1 | 13.1 | 16.4 µM [rising, single point] | – |
| CCOC(=O)c1cc2sc(C)cc2n1CC(=O)NCc1ccc(F)cc1 | -61.5 | – | 29.1 µM [falling, single point] |

| Structure (SMILES) | cell number change [%] | AC50 [1] | AC50 [2] |
| --- | --- | --- | --- |
| O=C(O)CN=C(NS(=O)(=O)c1ccc(Cl)cc1)c1ccccc1 | -23.3 | 18.4 µM [falling, single point] | 1.16 µM [falling, full curve, poor fit] |
| O=C(CN1C(=O)NC2(CCCCCC2)C1=O)Nc1ccc(Br)cc1Br | 33 | – | 3.66 µM [rising, full curve, poor fit] |
| Cc1cccc2nc(-c3cccc(NC(=O)Cc4ccccc4)c3)cn12 | 5.98 | 0.146 µM [rising, full curve, poor fit] | 0.146 µM [rising, full curve, poor fit] |
| CCCCn1c(N)c(N(CCOC)C(=O)c2cccc(-n3cnnn3)c2)c(=O)[nH]c1=O | -9.5 | – | – |
| O=C(CN1C(=O)CS/C1=C\c1nc(-c2ccc(Cl)cc2)cs1)Nc1cccnc1Cl | 28.7 | – | – |
| CCCOc1ccc(CCCN=C(N)N)cc1Cl | -3.51 | – | – |
| COC(=O)c1cc(-c2cccc(OC)c2)c2c(=O)[nH]c(=O)n(C)c2n1 | 22.5 | – | – |
| CC(C)(C)OC(=O)N1CCN(C(=O)c2[nH]cnc2C(=O)N[C@@H](Cc2ccccc2)C(=O)OCc2ccccc2)CC1 | -17.8 | 0.116 µM [falling, full curve, poor fit] | – |
| O=[N+]([O-])c1ccc([N+](=O)[O-])c(Nc2ccc(N3CCOCC3)cc2)c1 | 118 | – | – |
| Cc1ccc(C)c(N2CCN(c3ccc(N4C(=O)COCC4=O)cc3[N+](=O)[O-])CC2)c1 | -19.5 | 1.84 µM [falling, partial curve, poor fit] | 2.59 µM [falling, single point] |
| C=CCn1c(C(CCCC)CC(C)O)n[nH]c1=S (stereo unspecified) | -24.4 | 5.8 µM [falling, single point] | – |
| O=C(O)c1ccc(S(=O)(=O)c2ccc3c(c2)C(=O)N(c2ccc(Br)cc2)C3=O)cc1 | 16.7 | – | – |
| CC(C)=CCSc1nnc([C@@H](NC(=O)OC(C)(C)C)C(C)C)o1 | 20.6 | 5.8 µM [falling, single point] | 0.82 µM [falling, single point] |
| COC(=O)COc1ccc(Cl)cc1C1Nc2ccccc2C(=O)N1c1ccc(OC)cc1 (stereo unspecified) | 85.7 | 6.51 µM [falling, single point] | – |
| Cc1cccc(-c2cc3c(N=O)c4ccccc4c-3n[nH]2)c1 | 9.01 | 0.259 µM [rising, partial curve, poor fit] | – |

A run of entries taken from the entries so far, as a working copy:

| Structure (SMILES) | cell number change [%] | AC50 [1] | AC50 [2] |
| --- | --- | --- | --- |
| COC(=O)c1cc(-c2cccc(OC)c2)c2c(=O)[nH]c(=O)n(C)c2n1 | 22.5 | – | – |
| CC(C)(C)OC(=O)N1CCN(C(=O)c2[nH]cnc2C(=O)N[C@@H](Cc2ccccc2)C(=O)OCc2ccccc2)CC1 | -17.8 | 0.116 µM [falling, full curve, poor fit] | – |
